No constants are given. Whether binding was seen depends on the method and setting. Some results given as binding are weak or reduced against the parent protein; the word gives no strength.

Amino acid sequences for entries named in this document (tags omitted). Residues count along the entry.
UniProt P05067, residues 672-713: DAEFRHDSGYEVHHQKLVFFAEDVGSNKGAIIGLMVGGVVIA
UniProt P00327, residues 2-375: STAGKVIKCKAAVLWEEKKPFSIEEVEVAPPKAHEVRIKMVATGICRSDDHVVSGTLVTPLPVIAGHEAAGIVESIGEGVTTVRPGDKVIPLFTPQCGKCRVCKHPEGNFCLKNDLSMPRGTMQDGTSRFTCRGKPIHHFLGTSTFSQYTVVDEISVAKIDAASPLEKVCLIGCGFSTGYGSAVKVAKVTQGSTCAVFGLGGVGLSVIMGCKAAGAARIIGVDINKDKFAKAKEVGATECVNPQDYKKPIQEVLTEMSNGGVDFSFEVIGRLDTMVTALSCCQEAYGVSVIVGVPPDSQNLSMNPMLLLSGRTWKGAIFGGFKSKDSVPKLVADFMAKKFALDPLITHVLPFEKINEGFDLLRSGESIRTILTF

One test addresses beta amyloid (UniProt P05067). Description: protein pin array ELISA, A450. A general note: In an ELISA, binding on a coated surface is turned into a signal by an enzyme label.
Test [1] deals with Equine Alcohol dehydrogenase (equine) (UniProt P00327). Nature of the test: protein pin array ELISA, A450; listed as peak peptide with unheated and pre-heated target.
Test [2] has the same target. Nature of the test: protein pin array ELISA, A450, ADH as the ligand.
Test [3] has the same target. Nature of the test: protein pin array.

On to LKVKVLGD, for which, in the test with beta amyloid, the binding result is on record as “binds”.

Turning to DQFFGEHL, in the test with beta amyloid, the binding entry is on record as “binds”.

On to RLEKDRFS, for which the binding result (in test [1]; in test [2]; with beta amyloid) was “binds” each time.

HGFISREF: in the test with beta amyloid, the binding result is recorded as “binds”.

On to RTIPITRE, for which the binding entry (in test [1]; in test [2]; with beta amyloid) was “binds” each time.

In the case of LFPTSTSL, the binding result (in test [1]; in test [2]; in the test with beta amyloid) was “binds” in each case.

With FSVNLDVK, the binding entry (in test [1]; in test [2]; in the test with beta amyloid; in test [3]) was “binds” each time.

As for FFGEHLLE, the binding entry in test [1] and in test [2] was “binds” each time.

For the molecule LTITSSLS, the binding result (in test [1]; in test [2]; in the test with beta amyloid; in test [3]) was “binds” in each case.

SPFYLRPP: the binding result with beta amyloid is listed as “binds”.

For the molecule SREFHRKY, the binding entry in test [1] and in test [2] was “binds” each time.

On to FISREFHR, for which the binding entry in the test with beta amyloid was “binds”.

In the case of LTVNGPRK, the binding entry with beta amyloid was “binds”.

In the case of FHSPSRLF, the binding result with beta amyloid is “binds”.

With WIRRPFFP, the binding result (in test [1]; in test [2]; with beta amyloid) was “binds” each time.

With KHEERQDE, the binding entry with beta amyloid was “binds”.

For PFFPFHSP, the binding entry (in test [1]; in test [2]; with beta amyloid) was “binds” in each case.

In the case of LRPPSFLR, the binding entry in test [1] and in test [2] was “binds” in each case.

With FPFHSPSR, the binding result in the test with beta amyloid was “binds”.

Take SFLRAPSW: the binding result with beta amyloid is on record as “binds”.

Consider KYRIPADV, for which the binding result with beta amyloid is on record as “binds”.

Consider FYLRPPSF, for which the binding result in the test with beta amyloid was “binds”.

Take GVLTVNGP: the binding entry (in test [1]; in test [2]; with beta amyloid; in test [3]) was “binds” in each case.

For SLSPFYLR, the binding result (in test [1]; in test [2]; with beta amyloid) was “binds” each time.

The values above are taken from US20070185028A1, “Compositions and methods for treatment of protein misfolding and protein aggregation diseases” (priority 2004, published 2007).
